Data as given in PubChem BioAssay AID1259254 (NCATS, 2017).

- Test: 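Genome-wide screen for genes that prevent DNA re-replication in cancer cells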 (primary screen)
- Cells: human HCT116 colorectal cancer cells
- Knock-down reagent: single siRNA against human genes
- Timing: 3 days
- Detection: 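Imaged Hoechst DNA stain sorts each cell into a cycle phase by DNA amount; per plate, G2 fraction set to 0% for non-targeting and 100% for GMNN siRNA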
- Reading the numbers: G2 robust z-score and G2 cells, % of GMNN control: higher = more G2 cells, more excess DNA replication; raw share of cells in G2: higher = larger share of cells with G2 DNA content
- Rule for the call: 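An siRNA counts as active if its G2 robust z-score lies at least 5 MADs above the screen median; here such calls match roughly 38% of GMNN control or more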
This is an unselected part of about 59,000 reagents tested. About 1,550 of all reagents (2.6%) count as active. 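G2 share is only a proxy for re-replication; each gene was hit by three separate siRNAs, and active genes were retested.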 The raw values are shown without normalisation. Entries without a mark were called inactive. The numbers tell different reagents against one gene apart. No sequences are given here. The record does not give: the amount of reagent.

gene knocked down | reagent no. | G2 robust z-score | G2 cells, % of GMNN control | raw share of cells in G2 (%)
GAREM2 (GeneID 150946) | 1 | -0.0128 | 2.88 | 4.79
GAREM2 (GeneID 150946) | 2 | -0.308 | 0.797 | 3.16
GAREM2 (GeneID 150946) | 3 | 0.802 | 8.61 | 6.07
DNAH10 (GeneID 196385) | 1 | 1.42 | 12.9 | 6.85
DNAH10 (GeneID 196385) | 2 | 1.62 | 14.4 | 8.76
DNAH10 (GeneID 196385) | 3 | -0.346 | 0.531 | 3.14
CYP20A1 (GeneID 57404) | 1 | 2.15 | 18.1 | 10.8
CYP20A1 (GeneID 57404) | 2 | 0.633 | 7.42 | 8.72
CYP20A1 (GeneID 57404) | 3 | -0.122 | 2.11 | 5.09
ASB4 (GeneID 51666) | 1 | -0.0167 | 2.85 | 4.62
ASB4 (GeneID 51666) | 2 | -0.61 | -1.33 | 3.71
ASB4 (GeneID 51666) | 3 | 1.58 | 14.1 | 7.84
GABRA4 (GeneID 2557) | 1 | 1.01 | 10 | 8.94
GABRA4 (GeneID 2557) | 2 | -0.364 | 0.406 | 4.92
GABRA4 (GeneID 2557) | 3 | -0.0694 | 2.48 | 5.34
ZNF680P1 (GeneID 728947) | 1 | 0.542 | 6.78 | 5.5
ZNF680P1 (GeneID 728947) | 2 | 0.103 | 3.7 | 4.55
ZNF680P1 (GeneID 728947) | 3 | 0.0153 | 3.07 | 5.11
HSPA5 (GeneID 3309) | 1 | -0.439 | -0.123 | 3.41
HSPA5 (GeneID 3309) | 2 | 1.23 | 11.6 | 10.3
HSPA5 (GeneID 3309) | 3 | 1.86 | 16.1 | 8.95
C4BPA (GeneID 722) | 1 | -0.848 | -3 | 2.27
C4BPA (GeneID 722) | 2 | 0.166 | 4.14 | 6.78
C4BPA (GeneID 722) | 3 | -0.0879 | 2.35 | 3.96
HARBI1 (GeneID 283254) | 1 | -1.34 | -6.44 | 1.31
HARBI1 (GeneID 283254) | 2 | -0.254 | 1.18 | 4.07
HARBI1 (GeneID 283254) | 3 | 0.515 | 6.59 | 5.59
AMER3 (GeneID 205147) | 1 | -0.673 | -1.77 | 2.94
AMER3 (GeneID 205147) | 2 | -1.07 | -4.53 | 1.58
AMER3 (GeneID 205147) | 3 | -0.0756 | 2.44 | 3.97
PDGFA (GeneID 5154) | 1 | -0.508 | -0.61 | 4.71
PDGFA (GeneID 5154) | 2 | 2.38 | 19.7 | 12
PDGFA (GeneID 5154) | 3 | 0.329 | 5.28 | 5.26
PROZ (GeneID 8858) | 1 | 2.17 | 18.3 | 11.9
PROZ (GeneID 8858) | 2 | -1.33 | -6.36 | 2.66
PROZ (GeneID 8858) | 3 | -0.121 | 2.11 | 4.7
INHBA (GeneID 3624) | 1 | 2.96 | 23.8 | 13.7
INHBA (GeneID 3624) | 2 | -0.536 | -0.8 | 5.38
INHBA (GeneID 3624) | 3 | 0.0402 | 3.25 | 5.39
RTN4RL2 (GeneID 349667) | 1 | 2.31 | 19.2 | 12.5
RTN4RL2 (GeneID 349667) | 2 | -0.459 | -0.263 | 4.19
RTN4RL2 (GeneID 349667) | 3 | -0.674 | -1.77 | 5.14
SAMD4A (GeneID 23034) | 1 | -0.612 | -1.34 | 4.46
SAMD4A (GeneID 23034) | 2 | -0.263 | 1.12 | 4.6
SAMD4A (GeneID 23034) | 3 | 0.18 | 4.24 | 4.76
VHLL (GeneID 391104) | 1 | -0.64 | -1.54 | 5.24
VHLL (GeneID 391104) | 2 | 0.252 | 4.74 | 6.81
VHLL (GeneID 391104) | 3 | 2.16 | 18.1 | 10.9

Reformatted: entries from further up
| gene knocked down | reagent no. | G2 robust z-score | G2 cells, % of GMNN control | raw share of cells in G2 (%) |
| --- | --- | --- | --- | --- |
| C4BPA (GeneID 722) | 1 | -0.848 | -3 | 2.27 |
| C4BPA (GeneID 722) | 2 | 0.166 | 4.14 | 6.78 |
| C4BPA (GeneID 722) | 3 | -0.0879 | 2.35 | 3.96 |
| HARBI1 (GeneID 283254) | 1 | -1.34 | -6.44 | 1.31 |
